From patent US12465609B2, “Methods of treating patients suffering from a disease condition or disorder that is associated with an increased glutamate level” (veriNOS operations GmbH, priority 2022, dated 2025) come the findings set out here.

Molecules are shown by their SMILES.

A short description of the series: In vitro reverse microdialysis as a model for local administration. The settings on record: for concentration in the immersion solution: perfusion Ronopterin 20 mg/mL, 1 μl/min, 20 kDa catheter, 120 to 180 minutes (FIG. 13D).

For the compound `CC(O)C(O)C1=Nc2c(N)nc(N)nc2NC1` [VAS3384, 4-Amino-(6R,S)-7,8-dihydro-L-biopterin], the “concentration in the immersion solution” value was more than 80 µmol/L. Moreover, the “measured concentration in immersion solution relative to IC50 value” (FIG. 13D) was “about 4 times”.
On to `C[C@H](O)[C@H](O)C1CNc2nc(N)nc(N)c2N1` (mixture of isomers) [Ronopterin, 4-Amino-(6R,S)-5,6,7,8-tetrahydro-L-biopterin], for which the “concentration in the immersion solution” value is “more than 30 μmol/l”.
